No constants are given. Whether binding was seen depends on the method and setting. A result given as binding can be weak or reduced; the word gives no strength.
Biological target: SKP1 (human) (UniProt P63208)
Experiment: cryo-EM structure; GLMN-SCF^FBXL17-BACH1-BTB complex formed with native (untreated) GST-BACH1-BTB on a glutathione column, tags cleaved by TEV, SEC; monomeric (mSCF^BTB) and dimeric (dSCF^BTB-I, -II) species; both purified

Sequences of proteins named here, by UniProt entry; tags and fusion partners are left off. Residues count along the entry.
UniProt Q9UF56, residues 310-701: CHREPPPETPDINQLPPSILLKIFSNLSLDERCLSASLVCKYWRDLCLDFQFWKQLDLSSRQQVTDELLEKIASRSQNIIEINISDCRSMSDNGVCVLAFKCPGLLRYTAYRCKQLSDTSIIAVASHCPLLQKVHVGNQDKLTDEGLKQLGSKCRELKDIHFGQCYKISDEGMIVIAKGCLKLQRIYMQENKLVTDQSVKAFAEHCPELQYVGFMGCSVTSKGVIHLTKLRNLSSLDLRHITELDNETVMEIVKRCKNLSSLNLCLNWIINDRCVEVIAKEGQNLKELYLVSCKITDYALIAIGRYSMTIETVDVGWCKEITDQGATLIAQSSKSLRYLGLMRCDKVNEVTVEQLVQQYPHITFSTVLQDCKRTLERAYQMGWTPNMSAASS

For “FBXL17 (amino acids 310-701) (from UniProt Q9UF56 310-701) (domain or fragment)”, the binding was “binds”.

From publication doi:10.1101/2024.06.03.594717
